Sequences of proteins named here, by UniProt entry; tags and fusion partners are left off.
UniProt O95983: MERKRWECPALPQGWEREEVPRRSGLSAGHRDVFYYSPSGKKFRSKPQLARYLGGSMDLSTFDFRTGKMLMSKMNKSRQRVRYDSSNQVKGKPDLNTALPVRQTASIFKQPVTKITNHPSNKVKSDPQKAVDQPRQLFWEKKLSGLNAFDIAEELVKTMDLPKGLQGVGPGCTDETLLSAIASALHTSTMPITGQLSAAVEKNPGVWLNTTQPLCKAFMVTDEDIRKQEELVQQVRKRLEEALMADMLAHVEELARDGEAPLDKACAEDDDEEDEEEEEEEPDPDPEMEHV
UniProt Q9Z2D8: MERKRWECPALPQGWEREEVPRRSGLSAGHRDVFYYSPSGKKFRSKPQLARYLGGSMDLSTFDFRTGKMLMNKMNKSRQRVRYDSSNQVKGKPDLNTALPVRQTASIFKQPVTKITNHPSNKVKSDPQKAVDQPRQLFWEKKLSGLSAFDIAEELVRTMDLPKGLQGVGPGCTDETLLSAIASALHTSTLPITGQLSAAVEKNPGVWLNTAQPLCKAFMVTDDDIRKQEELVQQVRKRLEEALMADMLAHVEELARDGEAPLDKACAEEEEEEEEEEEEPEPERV

In PMC7347010:

Columns and labels:
[1] = molecular target: MBD3-3xFLAG (endogenously tagged, human iPS cells) (human (endogenous in hiPSCs)) (UniProt O95983); test: affinity purification with mass spectrometry; anti-FLAG sepharose on nuclear extract of MBD3-3xFLAG knock-in hiPSCs; three independent immunoprecipitations from one preparation of nuclear extract
[2] = molecular target: Mbd3-3xFLAG (endogenously tagged, mouse epiStem cells) (mouse (endogenous in mEpiSCs)) (UniProt Q9Z2D8); test: affinity purification with mass spectrometry; anti-FLAG sepharose on nuclear extract of Mbd3-3xFLAG knock-in mEpiSCs; three independent immunoprecipitations each from two independent cell lines

B1: VRTN (human) (protein, UniProt Q9H8Y1 1-702)
chain: MTSRNQLVQKVLQELQEAVECEGLEGLIGASLEAKQVLSSFTLPTCREGGPGLQVLEVDSVALSLYPEDAPRNMLPLVCKGEGSLLFEAASMLLWGDAGLSLELRARTVVEMLLHRHYYLQGMIDSKVMLQAVRYSLCSEESPEMTSLPPATLEAIFDADVKASCFPSSFSNVWHLYALASVLQRNIYSIYPMRNLKIRPYFNRVIRPRRCDHVPSTLHIMWAGQPLTSHFFRHQYFAPVVGLEEVEAEGAPGVAPALPALAPLSSPAKTLELLNREPGLSYSHLCERYSVTKSTFYRWRRQSQEHRQKVAARFSAKHFLQDSFHRGGVVPLQQFLQRFPEISRSTYYAWKHELLGSGTCPALPPREVLGMEELEKLPEEQVAEEELECSALAVSSPGMVLMQRAKLYLEHCISLNTLVPYRCFKRRFPGISRSTYYNWRRKALRRNPSFKPAPALSAAGTPQLASVGEGAVIPWKSEAEEGAGNATGEDPPAPGELLPLRMPLSRWQRRLRRAARRQVLSGHLPFCRFRLRYPSLSPSAFWVWKSLARGWPRGLSKLQVPVPTLGKGGQEAEEKQEKEAGRDVTAVMAPPVGASSEDVEGGPSREGALQEGATAQGQPHSGPLLSQPVVAAAGGRDGRMLVMDMIATTKFKAQAKLFLQKRFQSKSFPSYKEFSALFPLTARSTYYMWKRALYDGLTLVDG
**Q.** With B1 as the binder, how does the binding [1] read?
**A.** binds

B2: VRTN (mouse) (protein, UniProt Q3SYK4 1-740)
chain: MTSRDQLVQQVLRDLQEAVESEGLEGLIGAALEAKQVLSSFTLPICQKGGPGAQVLEVDSVALSLYPEDAPRNMLPLVCKGEGSLLFEATSLLLWGHTGLSLELRARTVVEMLLHRHYYLQGMIDSKVMLQAVRYSLCSEESPEMTNLSFATLEAIFDADVKATCFPTSFSNVWHLYALASILECNIYSIYPMRNIKIRPYFNRVIMPRCSTHVTSMLHIMWAGQPLTSHLFRHQYFAPVVGLEEVEADCTASLNPVPPNLGPLLPPAKTLELLNREPGLSYSHLCDRISITKSTFYRWRRQTQEHRQKVATRFSAKHFLQDSFHRGGFVPLQQFLQRFPEISRSTYYAWKHELLGSGANSALGPATPSREALAVPEVERPPGKKAAEEVGCSSLAAAMLSPPSMILMQRAKSFLEYCISLNKLVPYRCFKCRFPGISRSTYYNWRRKALRRTPSFKLSQAAFETAESLQPTDVGKETPFSLKREAGEEETGKAGSGAPLTSRGLISPKMPLSRWQRRLRRAARKQVLNGHLPFCRFRLRYPSLLPSTFWVWKSLSRRSPGMQIPSLSQRRQKPQGRQKPEGRQKPEEQQKPEGRQKPEGRQKPVEPQAMEADQNVPAMVVPPAETLPVATSPEDVPGGPSREGNIIQEAAMTQSQPHSGSLPSQTLAEAPGGSDGQVLVMDMLTTTRFKAQAKLFLQKRFQSKTFPSYKEFQALFPLTARSTYYMWKRALYEGLTLIDG
**Q.** Which binding [2] does the source give for B2 here?
**A.** binds

B3: ZNF423 (mouse) (protein, UniProt Q80TS5 1-1292)
chain: MSRRKQAKPRSVKVEEGEASDFSLAWDSSVAAAGGLEGEPECDRKTSRALEDRNSVTSQEERNEDDEDVEDESIYTCDHCQQDFESLADLTDHRAHRCPGDGDDDPQLSWVASSPSSKDVASPTQMIGDGCDLGLGEEEGGTGLPYPCQFCDKSFIRLSYLKRHEQIHSDKLPFKCTFCSRLFKHKRSRDRHIKLHTGDKKYHCHECEAAFSRSDHLKIHLKTHSSSKPFKCSVCKRGFSSTSSLQSHMQAHKKNKEHLAKSEKEAKKDDFMCDYCEDTFSQTEELEKHVLTLHPQLSEKADLQCIHCPEVFVDESTLLAHIHQAHANQKHKCPMCPEQFSSVEGVYCHLDSHRQPDSSNHSVSPDPVLGSVASMSSATPDSSASVERGSTPDSTLKPLRGQKKMRDDGQSWPKVVYSCPYCSKRDFTSLAVLEIHLKTIHADKPQQSHTCQICLDSMPTLYNLNEHVRKLHKSHAYPVMQFGNISAFHCNYCPEMFADINSLQEHIRVSHCGPNANPPDGNNAFFCNQCSMGFLTESSLTEHIQQAHCSVGSTKLESPVVQPTQSFMEVYSCPYCTNSPIFGSILKLTKHIKENHKNIPLAHSKKSKAEQSPVSSDVEVSSPKRQRLSGSANSISNGEYPCNQCDLKFSNFESFQTHLKLHLELLLRKQACPQCKEDFDSQESLLQHLTVHYMTTSTHYVCESCDKQFSSVDDLQKHLLDMHTFVLYHCTLCQEVFDSKVSIQVHLAVKHSNEKKMYRCTACNWDFRKEADLQVHVKHSHLGNPAKAHKCIFCGETFSTEVELQCHITTHSKKYNCRFCSKAFHAVILLEKHLREKHCVFDAAAENGTANGVPPTSTKKAEPADLQGMLLKNPEAPNSHEASEDDVDASEPMYGCDICGAAYTMEVLLQNHRLRDHNIRPGEDDGSRKKAEFIKGSHKCNVCSRTFFSENGLREHLQTHRGPAKHYMCPICGERFPSLLTLTEHKVTHSKSLDTGTCRICKMPLQSEEEFIEHCQMHPDLRNSLTGFRCVVCMQTVTSTLELKIHGTFHMQKLAGSSAASSPNGQGLQKLYKCALCLKEFRSKQDLVRLDVNGLPYGLCAGCMARSANGQVGGLAPPEPADRPCAGLRCPECNVKFESAEDLESHMQVDHRDLTPETSGPRKGAQTSPVPRKKTYQCIKCQMTFENEREIQIHVANHMIEEGINHECKLCNQMFDSPAKLLCHLIEHSFEGMGGTFKCPVCFTVFVQANKLQQHIFAVHGQEDKIYDCSQCPQKFFFQTELQNHTMSQHAQ
**Q.** For B3, which binding [2] is on record?
**A.** binds

B4: PGBD3 (protein, UniProt Q8N328 1-593)
chain: MPRTLSLHEITDLLETDDSIEASAIVIQPPENATAPVSDEESGDEEGGTINNLPGSLLHTAAYLIQDGSDAESDSDDPSYAPKDDSPDEVPSTFTVQQPPPSRRRKMTKILCKWKKADLTVQPVAGRVTAPPNDFFTVMRTPTEILELFLDDEVIELIVKYSNLYACSKGVHLGLTSSEFKCFLGIIFLSGYVSVPRRRMFWEQRTDVHNVLVSAAMRRDRFETIFSNLHVADNANLDPVDKFSKLRPLISKLNERCMKFVPNETYFSFDEFMVPYFGRHGCKQFIRGKPIRFGYKFWCGATCLGYICWFQPYQGKNPNTKHEEYGVGASLVLQFSEALTEAHPGQYHFVFNNFFTSIALLDKLSSMGHQATGTVRKDHIDRVPLESDVALKKKERGTFDYRIDGKGNIVCRWNDNSVVTVASSGAGIHPLCLVSRYSQKLKKKIQVQQPNMIKVYNQFMGGVDRADENIDKYRASIRGKKWYSSPLLFCFELVLQNAWQLHKTYDEKPVDFLEFRRRVVCHYLETHGHPPEPGQKGRPQKRNIDSRYDGINHVIVKQGKQTRCAECHKNTTFRCEKCDVALHVKCSVEYHTE
**Q.** With B4 as the binder, how does the binding [1] read?
**A.** binds

B5: BEND3 (human) (protein, UniProt Q5T5X7 1-828)
chain: MNSTEFTEDVEEVLKSITVKVETEAEDAALDCSVNSRTSEKHSVDSVLTALQDSSKRKQLVSDGLLDSVPGVKRRRLIPEALLAGMRNRENSSPCQGNGEQAGRGRSLGNVWPGEEEPCNDATTPSYKKPLYGISHKIMEKKNPPSGDLLNVYELFEKANASNSPSSLRLLNEPQKRDCGSTGAGTDNDPNIYFLIQKMFYMLNTLTSNMSQLHSKVDLLSLEVSRIKKQVSPTEMVAKFQPPPEYQLTAAELKQIVDQSLSGGDLACRLLVQLFPELFSDVDFSRGCSACGFAAKRKLESLHLQLIRNYVEVYYPSVKDTAVWQAECLPQLNDFFSRFWAQREMEDSQPSGQVASFFEAEQVDPGHFLDNKDQEEALSLDRSSTIASDHVVDTQDLTEFLDEASSPGEFAVFLLHRLFPELFDHRKLGEQYSCYGDGGKQELDPQRLQIIRNYTEIYFPDMQEEEAWLQQCAQRINDELEGLGLDAGSEGDPPRDDCYDSSSLPDDISVVKVEDSFEGERPGRRSKKIWLVPIDFDKLEIPQPDFEVPGADCLLSKEQLRSIYESSLSIGNFASRLLVHLFPELFTHENLRKQYNCSGSLGKKQLDPSRIKLIRHYVQLLYPRAKNDRVWTLEFVGKLDERCRRRDTEQRRSYQQQRKVHVPGPECRDLTSYAINPERFREEFEGPPLPPERSSKDFCKIPLDELVVPSPDFPVPSPYLLSDKEVREIVQQSLSVGNFAARLLVRLFPELFTAENLRLQYNHSGACNKKQLDPTRLRLIRHYVEAVYPVEKMEEVWHYECIPSIDERCRRPNRKKCDILKKAKKVEK
**Q.** With B5 as the binder, how does the binding [1] read?
**A.** binds

No constants are given. Whether binding was seen depends on the method and setting. Binding seen in cells or lysates may run through a third protein. These calls come from enrichment with a bait or labelling near it, and not all partners need be listed.
